Results from PMC7819943, “Rice protein-binding microarrays: a tool to detect cis-acting elements near promoter regions in rice”.
Some of the results follow.

Each sequence was assayed against T1, OsSMF1 (Oryza sativa, UniProt Q6ZLB0 1-436) (assay: protein-binding microarray (RPBM); PBS, 2% BSA, 51.3 ng/ul salmon testes DNA, 50 uM zinc acetate, 200 nM TF, 25 C, 1 h; high values mean tight binding). Conditions: protein: recombinant; tags: N-terminal polyhistidine and DsRed monomer fusion (pET32a); chain copies: 2; label: CyDye5-dUTP incorporated in the synthesized complementary strand; 3' TTTTT single-stranded linker to array surface; dsDNA, one strand shown.
T1 sequence: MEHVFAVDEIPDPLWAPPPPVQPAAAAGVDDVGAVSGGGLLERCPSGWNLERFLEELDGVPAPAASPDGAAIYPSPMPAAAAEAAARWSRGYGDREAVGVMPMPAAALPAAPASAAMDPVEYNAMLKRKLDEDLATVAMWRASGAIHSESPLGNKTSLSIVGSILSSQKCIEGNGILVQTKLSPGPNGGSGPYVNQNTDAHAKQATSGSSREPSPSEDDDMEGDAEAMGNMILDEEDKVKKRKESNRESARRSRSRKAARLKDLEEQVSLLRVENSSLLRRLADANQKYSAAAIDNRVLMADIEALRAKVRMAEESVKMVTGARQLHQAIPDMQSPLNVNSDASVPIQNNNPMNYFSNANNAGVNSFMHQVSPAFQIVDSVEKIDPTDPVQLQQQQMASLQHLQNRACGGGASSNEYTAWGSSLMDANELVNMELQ
Procedure, shortened: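 Using Ni–NTA, transcription factors fused N-terminally to polyhistidine and DsRed were purified after expression in E. coli BL21-CodonPlus. These were incubated at 200 nM with a blocked, double-stranded custom Agilent array for 1 h at 25 °C in a buffer containing 50 µM zinc acetate, and the array was washed. The binding signal is per-feature fluorescence intensity (arbitrary units) on an Axon 4000B scanner.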

| Sequence | binding signal |
| --- | --- |
| TTTGCTGGTCAAATTAAACGATGCGCATCCACGTTTGACGCGGAGTCACCTAGTGCAG | 3960 fluorescence intensity (a.u.) |
| GTTCGATGCATCTCGCCACCATGACGTGTACCGCGAAAGACGGAGTCACCTAGTGCAG | 17400 fluorescence intensity (a.u.) |
| TGGAAGTTATATAGCTATATTTATGATGCTACGTGGCTTCCGGAGTCACCTAGTGCAG | 7060 fluorescence intensity (a.u.) |
| CGCGGTCGACCCACCGTCTGCCACGTCAGCTTGCTGCCCACGGAGTCACCTAGTGCAG | 25600 fluorescence intensity (a.u.) |
| TAAATAAAAGACACATGATTTCTGTGGGATAACTTTGTATCGGAGTCACCTAGTGCAG | 3500 fluorescence intensity (a.u.) |
| GGTGAAGACGCTGATTCGTCTCAAACAAGTGATGACGACGCGGAGTCACCTAGTGCAG | 3220 fluorescence intensity (a.u.) |
| CTATGTAGCGTGAGATCCTCTGCCGTCGACGCCATCTTCTCGGAGTCACCTAGTGCAG | 3320 fluorescence intensity (a.u.) |
| ACTCCAAGTAGCTCGCTCTACGTAATGAACTGTATGTACCCGGAGTCACCTAGTGCAG | 4040 fluorescence intensity (a.u.) |
| CCCGGCGTCGGTGAGCTCCTCCCTGCCAACCGCCACCCTTCGGAGTCACCTAGTGCAG | 4320 fluorescence intensity (a.u.) |
| CCGCAACGTCTCGTTGTCGTCGTCACCGGATAAGCATTGGCGGAGTCACCTAGTGCAG | 4440 fluorescence intensity (a.u.) |
| TATGTGCTTTCACTAGATAATATGTGTGAATGACATGGCGCGGAGTCACCTAGTGCAG | 8740 fluorescence intensity (a.u.) |
| AGAGGTTCAAACTGTATATGTTCTAGACCATTCACAAGCTCGGAGTCACCTAGTGCAG | 64100 fluorescence intensity (a.u.) |
| GAAGCAGTCTCGTAGCTCCTCGTAGCTACCACACCAACACCGGAGTCACCTAGTGCAG | 3170 fluorescence intensity (a.u.) |
| TTAGGCCACGACAGCAAATCTTGTTTCTTTCCATGCCCACCGGAGTCACCTAGTGCAG | 6740 fluorescence intensity (a.u.) |
| TGAAATTAGAGTGCCTTGTAACAAATTTAATTTGCCTAAACGGAGTCACCTAGTGCAG | 4070 fluorescence intensity (a.u.) |
| GAGGGAGTAATAGCTTTCTCATGTGCGTCAGCTTAATTTTCGGAGTCACCTAGTGCAG | 4380 fluorescence intensity (a.u.) |
| TTGCTTGGTTTCTGCCACTTCTCATGCAGTGACTTGTACTCGGAGTCACCTAGTGCAG | 3970 fluorescence intensity (a.u.) |
| CTGTGCCTTGGCGGTTCGCTCTGGAGTCACATATAATGCCCGGAGTCACCTAGTGCAG | 3220 fluorescence intensity (a.u.) |
| ACGTGATAAAGTCAGTGGTAAATTGTAGAAGTGTGACAAACGGAGTCACCTAGTGCAG | 35800 fluorescence intensity (a.u.) |
| GGGGCCCACGGCGCGACCTGCCACGTGTCGCGCCTCGATTCGGAGTCACCTAGTGCAG | 15900 fluorescence intensity (a.u.) |
| ACGCTAGCCACAGTGCACGGGTGGCGGCGGAGGAGGTGGGCGGAGTCACCTAGTGCAG | 25100 fluorescence intensity (a.u.) |

Exported with tabs: part of the list above.
Sequence	binding signal
GGGGCCCACGGCGCGACCTGCCACGTGTCGCGCCTCGATTCGGAGTCACCTAGTGCAG	15900 fluorescence intensity (a.u.)
ACGCTAGCCACAGTGCACGGGTGGCGGCGGAGGAGGTGGGCGGAGTCACCTAGTGCAG	25100 fluorescence intensity (a.u.)

More entries follow.

| Sequence | binding signal |
| --- | --- |
| CAGCTTAGCCTTAGCCCAACGATGACGACGAGATATCAGACGGAGTCACCTAGTGCAG | 3550 fluorescence intensity (a.u.) |
| GGATCCATCCGCGCCCGCCGCTGACGCTGCCACCGCCGCCCGGAGTCACCTAGTGCAG | 6640 fluorescence intensity (a.u.) |
| ATGGCCTCATCCGCCGCCACGCTGTCGTAGCCCTCTCGCGCGGAGTCACCTAGTGCAG | 5980 fluorescence intensity (a.u.) |
| GTCGTCCCGCCGCCGATGACGTCCGGTGGCGGGCCCTACTCGGAGTCACCTAGTGCAG | 3490 fluorescence intensity (a.u.) |
| CGACGCGCGAAGAACCCCGCACCACCACCACCCCACGCGGCGGAGTCACCTAGTGCAG | 3210 fluorescence intensity (a.u.) |
| TTCATTAGTTCTTTGCAAACTTAGCGTCATGTTCATTAGACGGAGTCACCTAGTGCAG | 3420 fluorescence intensity (a.u.) |
| TGTACCACACTTCATATATCATGAGTCACTTCATGTCTGGCGGAGTCACCTAGTGCAG | 8000 fluorescence intensity (a.u.) |
| CCTTGTCGCCGCCACACAAAGTCGCTGCCGCCATCGTGTACGGAGTCACCTAGTGCAG | 3150 fluorescence intensity (a.u.) |
| GGTATTAATTGTCGAGCCATGCATCCACGTGCACAGGGTACGGAGTCACCTAGTGCAG | 5860 fluorescence intensity (a.u.) |
| GGATGCGGTGACGGCGGAGTGACAGTGTCTGAGGTGAGGACGGAGTCACCTAGTGCAG | 3440 fluorescence intensity (a.u.) |
| ATCGTCGTCGTCATCGGTATCCTTCATTCTGACATGCATTCGGAGTCACCTAGTGCAG | 4520 fluorescence intensity (a.u.) |
| AGATTCTTCGCTGACCTCATCATTCGCCTCGCCGCCGCCCCGGAGTCACCTAGTGCAG | 6820 fluorescence intensity (a.u.) |
| AGTGATCACTTGCTTCAAAGGGTGCAGCAGTGTAGGAGAGCGGAGTCACCTAGTGCAG | 18900 fluorescence intensity (a.u.) |
| CGTGGGAAGAAGACAGTCAAAGAAGCCACGTCAGGCAAAACGGAGTCACCTAGTGCAG | 14800 fluorescence intensity (a.u.) |
| CAAAATTACTCCAGCAGGAAGCATGAGGTTTGCCGTTTTGCGGAGTCACCTAGTGCAG | 17900 fluorescence intensity (a.u.) |
| TAATACCTGCAGCTGTGTGTAGTATATATAGAGCCGTTTGCGGAGTCACCTAGTGCAG | 3780 fluorescence intensity (a.u.) |
| GCACGCCCGAGGCGGGCCCCACCTGTCAGCGACCCCGCGACGGAGTCACCTAGTGCAG | 4620 fluorescence intensity (a.u.) |
| TCGTTTACCCTTATATTTCGAAGCTGTAGCCTCGTCAAGTCGGAGTCACCTAGTGCAG | 3430 fluorescence intensity (a.u.) |
| AATCATGTTGGCACAACTTTGATTTAACTGATAGAACAAACGGAGTCACCTAGTGCAG | 12200 fluorescence intensity (a.u.) |
| TGATTGTTTAACCAAAATATATGCAATTGACTAAGCAAAACGGAGTCACCTAGTGCAG | 3220 fluorescence intensity (a.u.) |
| GAACGACCCGAACTTATGACTCATTTATGGTTTGTTTCTCCGGAGTCACCTAGTGCAG | 8680 fluorescence intensity (a.u.) |
